These are yes or no findings as the source states them, for the method shown. In cells and extracts the contact can be indirect. For some assays here: Tags and fused reporters may be left off the sequences shown. Each block holds one molecule with its values, some of them ahead of it.
Columns and labels:
[1] = biological target: T1, S100A11-FLAG (UniProt P31949); test: co-IP; Huh7 lysate (200 ug protein) on Protein G Sepharose with anti-FLAG antibody or mouse IgG; lysis buffer 150 mM NaCl, 50 mM Tris-HCl pH 7.4, 1% Triton-X-100, 2 mM EDTA, 10 mM NaF; western blot for S100A10 and S100A11
T1 sequence: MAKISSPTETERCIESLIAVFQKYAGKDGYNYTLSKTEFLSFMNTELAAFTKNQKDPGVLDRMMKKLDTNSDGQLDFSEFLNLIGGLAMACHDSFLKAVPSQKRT

Sequences of proteins named here, by UniProt entry; tags and fusion partners are left off.
UniProt P60903: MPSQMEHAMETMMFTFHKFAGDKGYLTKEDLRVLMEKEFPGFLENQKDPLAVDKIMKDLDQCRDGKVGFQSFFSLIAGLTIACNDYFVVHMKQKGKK

[2] = biological target: S100A10-FLAG (UniProt P60903); test: as above

binding [1]: no binding
Molecule: S100A10 (from UniProt P60903 1-97)

binding [2]: no binding
B1: S100A11 (protein, UniProt P31949 1-105)
chain: T1 sequence

From PMC12370981
